{"sequences": {"note": "Sequences of proteins named here, by UniProt entry; tags and fusion partners are left off. Residues count along the entry.", "UniProt P03001, 33-123": "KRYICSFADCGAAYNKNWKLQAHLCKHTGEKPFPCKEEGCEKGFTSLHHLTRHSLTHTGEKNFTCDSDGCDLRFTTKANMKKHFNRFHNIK"}, "source": "patent US6140466", "biological_target": "TFIIIA zf1-3 (UniProt P03001)", "assay": "inhibition of the protein", "details": "represses 5S RNA pol III transcription in Xenopus egg extract; purified recombinant protein; protein details: first three zinc fingers of TFIIIA; only the site is given", "data": [{"sequence": "TGGATGGGAGACC (double strand) [5S RNA gene plasmid]", "values": [{"measurement": "activity on this sequence", "result": "active"}]}]}
